These are yes or no findings as the source states them, for the method shown. Some binding calls cover weakened binding; strength is not graded here.
Key:
[1] = target: Aβ aggregates (amyloid plaques) in brain slices of 5×FAD mice (human) (UniProt P05067); experiment: immunohistochemistry on 5×FAD mouse brain slices
[2] = target: Aβ aggregates (amyloid plaques) in brain slices of 5×FAD mice (human) (UniProt P05067); experiment: immunohistochemistry on brain slices of 12 month old 5×FAD mice

The chains behind the UniProt entries cited, without tags or fusion partners. Residues count along the entry.
UniProt P05067, residues 672-713: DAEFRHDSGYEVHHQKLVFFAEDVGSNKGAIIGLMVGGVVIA

B1: monoclonal antibody K11 (antibody, mouse IgG1, kappa, V domains shown)
VH: QVQLKESGPGLVAPSQSLSITCTVSGFSLTSYGVHWVRQPPGKGLEWLGALWASGNTDYSSTLMSRLSISKDNSKSQVFLKMNSLQTDDTAMYYCARDRGILTGGYFDVWGAGTTVTVSS
VL: DIVMSQSPTSLAVSAGEKVTMSCKSSQSLLNSRNRKNYLAWYQQKPGQSPKLLIYWASTRDSGVPDRFTGSGSGTDFTLTISSVQAEDLAVYYCKQSYNLRTFGGGTKLEIKR
**Q.** How did the binding [1] turn out when B1 was run?
**A.** binds

B2: monoclonal antibody K119 (antibody, mouse IgG2a, kappa, V domains shown)
VH: EVKLVESGGGLVQPGGSLRLSCATSGFTFTDYYMSWVRQPPGKALEWLGFIRNKANGYTTEYSASVKGRFTISRDNSQSILYLQMNTLRTEDSATYYCTRDIPTIMDYWGQGTSVTVSS
VL: DIVMSQSPSSLAVSAGEKATMSCKSSQSLFNSRTRKNYVAWLQQKPGQSPKLLISWASTRESGVPDRFTGSGSGTDFALTITNVQAEDLAVYYCKQSYNLRAFGGGTKLEITR
**Q.** For B2, which binding [2] is on record?
**A.** binds

**Q.** And the binding [1]?
**A.** binds
